*: point of attachment. Tos = Cc1ccc(S(=O)(=O)*)cc1; ClZ = O=C(OCc1ccccc1Cl)*; Boc = CC(C)(C)OC(=O)*; OcHex = C1CCC(O*)CC1; OBn = c1ccc(CO*)cc1; Bn = c1ccc(C*)cc1

The data set in a line: general procedure: solution-phase peptide synthesis; azide method (isoamyl nitrite/HCl-dioxane); OSu active esters; TFA-ONp (p-nitrop). The following applies: coupling step.
In the case of “Boc-Lys(Cl-Z)-Leu-Ser(Bzl)-Gln-Glu(OcHex)-Leu-His(Tos)-Lys(Cl-Z)-Leu-Gln-Thr(Bzl)-Pro-Thr(Bzl)-Asp(OBzl)-Val-Gly-Ala-Gly-Thr(Bzl)-Pro--NH2”, the step yield is recorded as 86.4%.

“Boc-Lys(Z)-Leu-Ser(Bzl)-Gln-Glu(OcHex)-Leu-Asn-Lys(Cl-Z)-Leu-Gln-Thr(Bzl)-Tyr(Cl2-Bzl)-Pro-Gln-Thr(Bzl)-Asp(OcHex)-Val-Gly-Ala-Gly-Thr(Bzl)-Pro--NH2” came in with a step yield of 95.9%. For “Boc-Lys(Z)-Leu-Ser(Bzl)-Gln-Glu(OcHex)-Leu-Gly-Lys(Cl-Z)-Leu-Gln-Thr(Bzl)-Tyr(Cl2-Bzl)-Pro-Gln-Thr(Bzl)-Asp(OcHex)-Val-Gly-Ala-Gly-Thr(Bzl)-Pro--NH2” the value was 97.5%; for “Boc-Lys(Z)-Leu-Ser(Bzl)-Gln-Glu(OcHex)-Leu-His(Tos)-Lys(Cl-Z)-Leu-Gln-Thr(Bzl)-D-Tyr(Cl2 -Bzl)-Pro-Arg(Tos)-Thr(Bzl)-Asp(OcHex)-Val-Gly-Ala-Gly-Thr(Bzl)-Pro--NH2”, 94.4%; for “Boc-Lys(Z)-Leu-Ser(Bzl)-Gln-Glu(OcHex)-Leu-His(Tos)-Lys(Cl-Z)-Leu-Gln-Thr(Bzl)-Pro-Arg(Tos)-Thr(Bzl)-Asp(OcHex)-Val-Gly-Ala-Gly-Thr(Bzl)-Pro--NH”, 95.0%. To “Boc-Lys(Z)-Leu-Ser(Bzl)-Gln-Glu(OcHex)-Leu-His(Tos)-Lys(Cl-Z)-Leu-Gln-Thr(Bzl)-Pro-Asn-Thr(Bzl)-Asp(OcHex)-Val-Gly-Ala-Gly-Thr(Bzl)-Pro--NH2” belongs 63.5%; to “Boc-Lys(Z)-Leu-Ser(Bzl)-Gln-Glu(OcHex)-Leu-His(Tos)-Lys(Cl-Z)-Leu-Gln-Thr(Bzl)-Tyr(Cl2-Bzl)-Pro-Gln-Thr(Bzl)-Asp(OcHex)-Val-Gly-Ala-Gly-Thr(Bzl)-Pro--NH2”, 91.3%. To “Boc-Lys(Z)-Leu-Ser(Bzl)-Gln-Glu(OcHex)-Leu-Lys(Cl-Z)-Leu-Gln-Thr(Bzl)-Tyr(Bzl)-Pro-Arg(Tos)-Thr(Bzl)-Asp(OBzl)-Val-Gly-Ala-Gly-Ala-Gly-Thr(Bzl)-Pro-- NH2” belongs 96.8%; to “Boc-Lys(Z)-Leu-Ser(Bzl)-Gln-Glu(OcHex)-Leu-Lys(Cl-Z)-Leu-Gln-Thr(Bzl)-Tyr(Cl2-Bzl)-Pro-Gln-Thr(Bzl)-Asp(OcHex)-Val-Gly-Ala-Gly-Thr(Bzl)-Pro--NH2”, 92.0%; to “Boc-Lys(Z)-Leu-Ser(Bzl)-Gln-Glu(OcHex)-Leu-Tyr(Cl2-Bzl)-Lys(Cl-Z)-Leu-Gln-Thr(Bzl)-Pro-Gln-Thr(Bzl)-Asp(OcHex)-Val-Gly-Ala-Gly-Thr(Bzl)-Pro--NH2”, 91.4%.

“Boc-NK(ClZ)LQT(Bn)LPQT(Bn)D(OcHex)VGAGT(Bn)P-NH2” came in with a step yield of 92.3%. For “Boc-NK(ClZ)LQT(Bn)PQT(Bn)D(OcHex)VGAGT(Bn)P-NH2” the value was 81.5%. To “Boc-NK(ClZ)LQT(Bn)PR(Tos)T(Bn)D(OcHex)VGAGT(Bn)P-NH2” belongs 94.3%; to “Boc-NK(ClZ)LQT(Bn)Y(Bn)PR(Tos)T(Bn)D(OBn)VGAGT(Bn)P-NH2”, 94.1%; to “Boc-NLQT(Bn)PQT(Bn)D(OcHex)VGAGT(Bn)P-NH2”, 71.1%. For “Boc-NNLQT(Bn)PQT(Bn)D(OcHex)VGAGT(Bn)P-NH2” the value was 78.1%; for Boc-NT(Bn)D(OcHex)VGAGT(Bn)P-NH2, 92.0%; for “Boc-QE(OBn)LHGLQT(Bn)PGT(Bn)D(OcHex)VGAGT(Bn)P-NH2”, 75.8%. For “Boc-QE(OBn)LHK(ClZ)LQT(Bn)LPR(Tos)T(Bn)D(OcHex)VGAGT(Bn)P-NH2”, the step yield came out at 71.3%. For “Boc-QE(OEt)LHK(ClZ)LQT(Bn)PR(Tos)T(Bn)D(OEt)VGAGT(Bn)P-NH2” the value was 90.9%. “Boc-QE(OcHex)LAK(ClZ)LQT(Bn)PR(Tos)T(Bn)D(OcHex)VGAGT(Bn)P-NH2” yielded a step yield of 95.9%. For “Boc-QE(OcHex)LD(OcHex)K(ClZ)LQT(Bn)PQT(Bn)D(OcHex)VGAGT(Bn)P-NH2” the value was 97.9%. To “Boc-QE(OcHex)LD(OcHex)K(ClZ)LQT(Bn)PR(Tos)T(Bn)D(OcHex)VGAGT(Bn)P-NH2” belongs 93.1%; to “Boc-QE(OcHex)LFK(ClZ)LQT(Bn)PR(Tos)T(Bn)D(OcHex)VGAGT(Bn)P-NH2”, 92.6%.

As for “Boc-QE(OcHex)LGK(ClZ)LQT(Bn)PNT(Bn)D(OcHex)VGAT(Bn)P-NH2”, the step yield came to 87.6%. To “Boc-QE(OcHex)LGK(ClZ)LQT(Bn)PQT(Bn)D(OcHex)VGAGT(Bn)P-NH2” belongs 95.4%; to “Boc-QE(OcHex)LGK(ClZ)LQT(Bn)Y(Bn)PR(Tos)T(Bn)D(OBn)VGAGT(Bn)P-NH2”, 97.8%. In turn, “Boc-QE(OcHex)LHGLQT(Bn)PR(Tos)T(Bn)D(OcHex)VGAGT(Bn)P-NH2” came in with a step yield of 98.4%. To “Boc-QE(OcHex)LHK(ClZ)LQT(Bn)PQT(Bn)D(OBn)VGAGT(Bn)P-NH2” belongs 90.3%. To “Boc-QE(OcHex)LHK(ClZ)QT(Bn)PR(Tos)T(Bn)D(OcHex)VGAGT(Bn)P-NH2” belongs 101.2%.

Take “Boc-QE(OcHex)LHLQT(Bn)PT(Bn)D(OcHex)VGAGT(Bn)P-NH2”: the step yield stood at 90.5%. To “Boc-QE(OcHex)LK(ClZ)LQT(Bn)PR(Tos)T(Bn)D(OcHex)VGAGT(Bn)P-NH2” belongs 100.0%; to “Boc-QE(OcHex)LK(ClZ)LQT(Bn)Y(Bn)PR(Tos)T(Bn)D(OBn)VGAGT(Bn)P-NH2”, 97.8%. “Boc-QE(OcHex)LLK(ClZ)LQT(Bn)PQT(Bn)D(OcHex)VGAGT(Bn)P-NH2” yielded a step yield of 99.8%. For “Boc-QE(OcHex)LLK(ClZ)LQT(Bn)PR(Tos)T(Bn)D(OcHex)VGAGT(Bn)P-NH2” the value was 96.1%. For “Boc-QE(OcHex)LNK(ClZ)LQT(Bn)PQT(Bn)D(OcHex)VGAGT(Bn)P-NH2” the value was 96.6%. To “Boc-QE(OcHex)LNK(ClZ)LQT(Bn)Y(Bn)PR(Tos)T(Bn)D(OBn)VGAGT(Bn)P-NH2” belongs 96.4%.

“Boc-QE(OcHex)LNNLQT(Bn)PQT(Bn)D(OcHex)VGAGT(Bn)P-NH2” showed a step yield of 94.5%. Regarding “Boc-QE(OcHex)LQK(ClZ)LQT(Bn)PNT(Bn)D(OcHex)VGAGT(Bn)P-NH2”, the step yield is 80.8%. Substance “Boc-QK(ClZ)LQT(Bn)PNT(Bn)D(OcHex)VGAGT(Bn)P-NH2” showed a step yield of 83.2%. For “Boc-QK(ClZ)LQT(Bn)PR(Tos)T(Bn)D(OcHex)VGAGT(Bn)P-NH2” the value was 98.0%; for Boc-QT(Bn)D(OBn)VGAGT(Bn)P-NH2, 87.9%; for Boc-QT(Bn)D(OcHex)VGAGT(Bn)P-NH2, 92.1%. To “Boc-QT(Bn)LPQT(Bn)D(OcHex)VGAGT(Bn)P-NH2” belongs 77.9%; to “Boc-QT(Bn)LPR(Tos)T(Bn)D(OcHex)VGAGT(Bn)P-NH2”, 86.5%; to Boc-QT(Bn)PGT(Bn)D(OcHex)VGAGT(Bn)P-NH2, 83.1%.

Boc-QT(Bn)PNT(Bn)D(OcHex)VGAGT(Bn)P-NH2 showed a step yield of 82.3%. In turn, Boc-QT(Bn)PQT(Bn)D(OcHex)VGAGT(Bn)P-NH2 registered a step yield of 78.0%. To “Boc-QT(Bn)PR(Tos)T(Bn)D(OEt)VGAGT(Bn)P-NH2” belongs 98.8%; to “Boc-QT(Bn)PR(Tos)T(Bn)D(OcHex)VGAGT(Bn)P-NH2”, 96.5%; to Boc-QT(Bn)PT(Bn)D(OBn)VGAGT(Bn)P-NH2, 93.5%. With Boc-R(Tos)T(Bn)D(OEt)VGAGT(Bn)P-NH2, the step yield stood at 94.8%.

In turn, Boc-R(Tos)T(Bn)D(OcHex)VGAGT(Bn)P-NH2 registered a step yield of 89.7%. With Boc-S(Bn)NLS(Bn)T(Bn)D-OEt, the step yield is given as 71.4%. Boc-S(Bn)NLS(Bn)T(Bn)E-OBn yielded a step yield of 80.5%. In turn, Boc-S(Bn)QE(OcHex)L-OH yielded a step yield of 44.3%. To “Boc-S(Bn)QE(OcHex)LGK(ClZ)LQT(Bn)PR(Tos)T(Bn)D(OcHex)VGAGT(Bn)P-NH2” belongs 92.4%.

On to “Boc-S(Bn)QE(OcHex)LNK(ClZ)LQT(Bn)PR(Tos)T(Bn)D(OcHex)VGAGT(Bn)P-NH2”, for which the step yield is recorded as 95.0%. To “Boc-Ser Bzl -Gln-Glu(OcHex)-Leu-Asn-Lys(Cl-Z)-Leu-Gln-Thr(Bzl)-Leu-Pro-Gln-Thr(Bzl)-Asp(OcHex)-Val-Gly-Ala-Gly-Thr(Bzl)-Pro--NH2” belongs 94.7%; to “Boc-Ser(Bzl)-Asn-Leu azide coupling product”, 60.4%.

For the substance “Boc-Ser(Bzl)-Asn-Leu-Ser(Bzl)-Thr(Bzl)-4-CPA--OCH3.1/2H2 O”, the step yield is reported as 76.1%. For “Boc-Ser(Bzl)-Asn-Leu-Ser(Bzl)-Thr(Bzl)-Cmc--OCH3” the value was 57.7%. For “Boc-Ser(Bzl)-Asn-Leu-Ser(Bzl)-Thr(Bzl)-Cpc--OCH3” the value was 73.6%; for “Boc-Ser(Bzl)-Asn-Leu-Ser(Bzl)-Thr(Bzl)-Tyr(CH2 COOH)--OCH3”, 63.8%. To Boc-T(Bn)D(OEt)VGAGT(Bn)P-NH2 belongs 81.4%.

Take Boc-T(Bn)D(OcHex)VGAGT(Bn)P-NH2: the step yield is 84.5%. To “Boc-T(Bn)LPR(Tos)T(Bn)D(OcHex)VGAGT(Bn)P-NH2” belongs 84.9%; to Boc-T(Bn)PGT(Bn)D(OcHex)VGAGT(Bn)P-NH2, 80.6%; to Boc-T(Bn)PNT(Bn)D(OcHex)VGAGT(Bn)P-NH2, 87.5%.

Boc-T(Bn)PQT(Bn)D(OBn)VGAGT(Bn)P-NH2 came in with a step yield of 85.4%. For Boc-T(Bn)PQT(Bn)D(OcHex)VGAGT(Bn)P-NH2 the value was 89.9%; for “Boc-T(Bn)PR(Tos)T(Bn)D(OcHex)VGAGT(Bn)P-NH2”, 82.8%. For Boc-T(Bn)PT(Bn)D(OBn)VGAGT(Bn)P-NH2 the value was 93.9%.

The values above are taken from US5162305 (dated 1992).
